Laboratory results: PubChem BioAssay AID743454 (Peter MacCallum Cancer Centre, 2014)
The whole screen tested about 18,000 reagents; below is a part drawn at random. 450 of them (2.5%) count as active. 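Single biological run; no consistent viability z cut-off exists, so the class columns, not z-scores, define the calls.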

Screen: 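Search for knock-downs that restore vorinostat killing in resistant colon cancer cells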 (primary screen)
System: human HCT116-VR colon cancer cells, selected for vorinostat resistance
Reagent: siRNA pool against human genes, 40 nM siRNA pool
Duration: vorinostat for 24 h, read-out about 72 h after transfection
Treatment: vorinostat at 2.5 µM final
Measured: 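Cell viability by CellTiter-Fluor and caspase 3/7 activity by luminescence, each scaled to mock wells per plate, duplicates averaged, then robust z-scored over all plates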
Direction: viability robust z-score: higher = more viable cells than screen typical; caspase robust z-score: higher = more caspase 3/7 activity than screen typical
Hit rule: 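a knock-down is a hit when classed RV1 or RV2 for lowered viability, or CA1 or CA2 for caspase activation; those lethal without drug were dropped; hits were retested singly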

The first 2 entries, ahead of the listing:
target gene | viability hit class | caspase hit class | viability robust z-score | caspase robust z-score | Call
PCIF1 (phosphorylated CTD interacting factor 1) | no change | no change | -0.24 | -0.22 | inactive
NATD1 (N-acetyltransferase domain containing 1) | no change | no change | 1.88 | -0.5 | inactive

Main list, from the start:
target gene | viability hit class | caspase hit class | viability robust z-score | caspase robust z-score | Call
PCIF1 (phosphorylated CTD interacting factor 1) | no change | no change | -0.24 | -0.22 | inactive
NATD1 (N-acetyltransferase domain containing 1) | no change | no change | 1.88 | -0.5 | inactive
FAM133B (family with sequence similarity 133 member B) | no change | no change | 0.76 | -0.26 | inactive
OR12D2 (olfactory receptor family 12 subfamily D member 2) | no change | no change | -0.02 | -0.42 | inactive
YIPF6 (Yip1 domain family member 6) | no change | no change | -0.57 | -0.31 | inactive
TMEM50B (transmembrane protein 50B) | no change | no change | -1.2 | 4.97 | inactive
PRKCH (protein kinase C eta) | no change | no change | -0.42 | -0.8 | inactive
MRPS6 (mitochondrial ribosomal protein S6) | no change | no change | 0.11 | -0.92 | inactive
SLC22A23 | no change | no change | 0.32 | -0.57 | inactive
PPFIBP2 (PPFIB scaffold protein 2) | no change | no change | 0.1 | 2.68 | inactive
CDX2 (caudal type homeobox 2) | no change | no change | 1.44 | -0.31 | inactive
SNX15 (sorting nexin 15) | no change | no change | 0.98 | -0.72 | inactive
SMS (spermine synthase) | no change | no change | -0.75 | -0.74 | inactive
DRAP1 (DR1 associated protein 1) | no change | no change | 0.68 | -0.58 | inactive
HEATR6 (HEAT repeat containing 6) | no change | no change | 0.68 | -0.55 | inactive
SIN3A (SIN3 transcription regulator family member A) | no change | CA2 (caspase activation) | -1.32 | 6.65 | active
CPLX4 (complexin 4) | no change | no change | 0.27 | -0.36 | inactive
FRS2 (fibroblast growth factor receptor substrate 2) | no change | no change | -2.29 | 4.27 | inactive
EP300 (EP300 lysine acetyltransferase) | no change | no change | -1.06 | -1.17 | inactive
DCUN1D1 (defective in cullin neddylation 1 domain containing 1) | no change | no change | -0.24 | -0.18 | inactive
H2BC8 (H2B clustered histone 8) | no change | no change | 0.23 | 0.69 | inactive
SLCO1B1 | no change | no change | -0.24 | -0.52 | inactive
CLIP1 (CAP-Gly domain containing linker protein 1) | no change | no change | -0.46 | -1.06 | inactive
A4GNT (alpha-1,4-N-acetylglucosaminyltransferase) | no change | no change | 0.36 | -0.53 | inactive
NTF3 (neurotrophin 3) | no change | no change | -2.63 | 2.7 | inactive
POLRMT (RNA polymerase mitochondrial) | no change | no change | 1.04 | -0.01 | inactive
HLF (HLF transcription factor, PAR bZIP family member) | no change | no change | -0.01 | 0 | inactive
LY96 (lymphocyte antigen 96) | no change | no change | 0.76 | -0.82 | inactive
KCNK2 (potassium two pore domain channel subfamily K member 2) | no change | no change | -0.34 | -0.99 | inactive
ZBTB43 (zinc finger and BTB domain containing 43) | no change | no change | -0.73 | 3.39 | inactive
INHBE (inhibin subunit beta E) | no change | no change | -0.68 | 0.6 | inactive
FMOD (fibromodulin) | no change | no change | 0.24 | 0.53 | inactive
ANLN (anillin, actin binding protein) | no change | no change | -1.84 | 0.49 | inactive
INPPL1 (inositol polyphosphate phosphatase like 1) | no change | no change | -0.47 | 0.16 | inactive
THEM6 (thioesterase superfamily member 6) | no change | no change | 2.56 | 0.38 | inactive
NOP2 (NOP2 nucleolar protein) | no change | no change | -3.23 | 0.7 | inactive
STK25 (serine/threonine kinase 25) | no change | no change | 0.02 | -0.6 | inactive
TICAM2 (TIR domain containing adaptor molecule 2) | no change | no change | -0.66 | -0.42 | inactive
PON2 (paraoxonase 2) | no change | no change | -0.6 | 0.55 | inactive
AFTPH (aftiphilin) | no change | no change | -0.72 | -0.68 | inactive
KREMEN1 (kringle containing transmembrane protein 1) | no change | no change | 0.05 | -0.16 | inactive
SBNO1 (strawberry notch homolog 1) | no change | no change | -0.11 | -0.76 | inactive
GAREM1 (GRB2 associated regulator of MAPK1 subtype 1) | no change | no change | -1.86 | 0.82 | inactive
PLAGL2 (PLAG1 like zinc finger 2) | no change | no change | 1.21 | 0.09 | inactive
ZMYND12 (zinc finger MYND-type containing 12) | no change | no change | -0.1 | 1.52 | inactive
AHSA1 (activator of HSP90 ATPase activity 1) | no change | no change | -1.73 | 0.55 | inactive
IGSF11 (immunoglobulin superfamily member 11) | no change | no change | 0.26 | -0.05 | inactive
SPRYD4 (SPRY domain containing 4) | no change | no change | 1.47 | -0.62 | inactive
MYOD1 (myogenic differentiation 1) | no change | no change | 0.8 | -0.77 | inactive
DUSP12 (dual specificity phosphatase 12) | no change | no change | -1.51 | -0.76 | inactive
IL2 (interleukin 2) | no change | no change | 0.85 | -1.09 | inactive
OPN1SW (opsin 1, short wave sensitive) | no change | no change | -2.67 | 1.75 | inactive
HSPB1 (heat shock protein family B (small) member 1) | no change | no change | -0.55 | 1.9 | inactive
MRPL32 (mitochondrial ribosomal protein L32) | no change | no change | 0.84 | -0.35 | inactive
DEFB131A (defensin beta 131A) | no change | no change | -0.85 | 0.24 | inactive
POU2F3 (POU class 2 homeobox 3) | no change | no change | 1.36 | -0.95 | inactive
PCDHA1 (protocadherin alpha 1) | no change | no change | 0.02 | -0.86 | inactive
NMNAT1 (nicotinamide nucleotide adenylyltransferase 1) | no change | no change | -0.6 | 1.78 | inactive
ZNF579 (zinc finger protein 579) | no change | no change | 0.16 | 1.08 | inactive
LYPD8 (LY6/PLAUR domain containing 8) | no change | no change | 0.84 | 0.17 | inactive
WDHD1 (WD repeat and HMG-box DNA binding protein 1) | no change | no change | -2.4 | 0.66 | inactive
SYT14 (synaptotagmin 14) | no change | no change | 0.72 | 0.18 | inactive
FUT5 (fucosyltransferase 5) | no change | no change | 1.39 | -0.29 | inactive
KICS2 (KICSTOR subunit 2) | no change | no change | -0.1 | 1.45 | inactive
GPATCH2L (G-patch domain containing 2 like) | no change | no change | -1.77 | -1.15 | inactive
CDHR1 (cadherin related family member 1) | no change | no change | 1 | -0.5 | inactive
AKAP11 (A-kinase anchoring protein 11) | no change | no change | -2.09 | 1.68 | inactive
CIAO3 (cytosolic iron-sulfur assembly component 3) | no change | no change | -0.54 | -0.94 | inactive
FILIP1 (filamin A interacting protein 1) | no change | no change | 1.96 | 0.14 | inactive
GAGE2E (G antigen 2E) | no change | no change | 0.36 | -0.79 | inactive
FDCSP (follicular dendritic cell secreted protein) | no change | no change | -0.39 | 0.83 | inactive
GGT7 (gamma-glutamyltransferase 7) | no change | no change | -0.08 | 4.65 | inactive
ATP4A (ATPase H+/K+ transporting subunit alpha) | no change | no change | 0.68 | 0.29 | inactive
